# Measured values as given in paper PMC9665845.
# Chains of the proteins cited; added tags and fusions are not shown.
# UniProt P35222: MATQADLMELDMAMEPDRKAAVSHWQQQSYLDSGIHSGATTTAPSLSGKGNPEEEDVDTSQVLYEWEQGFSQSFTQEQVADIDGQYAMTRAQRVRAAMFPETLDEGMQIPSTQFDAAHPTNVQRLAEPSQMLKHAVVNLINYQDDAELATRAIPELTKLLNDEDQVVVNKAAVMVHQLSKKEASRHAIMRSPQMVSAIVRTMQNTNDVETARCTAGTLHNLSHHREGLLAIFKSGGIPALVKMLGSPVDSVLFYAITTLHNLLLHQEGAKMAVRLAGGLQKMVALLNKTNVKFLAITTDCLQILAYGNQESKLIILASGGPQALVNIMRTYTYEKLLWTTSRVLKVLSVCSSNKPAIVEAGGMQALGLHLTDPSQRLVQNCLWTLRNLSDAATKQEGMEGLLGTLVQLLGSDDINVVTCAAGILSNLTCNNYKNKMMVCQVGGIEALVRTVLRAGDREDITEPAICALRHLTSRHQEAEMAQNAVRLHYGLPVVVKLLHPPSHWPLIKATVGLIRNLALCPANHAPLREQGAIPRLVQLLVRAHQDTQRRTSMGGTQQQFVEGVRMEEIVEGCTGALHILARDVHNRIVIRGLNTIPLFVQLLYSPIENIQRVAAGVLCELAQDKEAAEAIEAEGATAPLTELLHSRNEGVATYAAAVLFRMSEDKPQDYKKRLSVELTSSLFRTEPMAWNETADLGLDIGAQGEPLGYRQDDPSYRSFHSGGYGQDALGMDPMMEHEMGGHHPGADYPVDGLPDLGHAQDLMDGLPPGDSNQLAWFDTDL
# UniProt Q92973: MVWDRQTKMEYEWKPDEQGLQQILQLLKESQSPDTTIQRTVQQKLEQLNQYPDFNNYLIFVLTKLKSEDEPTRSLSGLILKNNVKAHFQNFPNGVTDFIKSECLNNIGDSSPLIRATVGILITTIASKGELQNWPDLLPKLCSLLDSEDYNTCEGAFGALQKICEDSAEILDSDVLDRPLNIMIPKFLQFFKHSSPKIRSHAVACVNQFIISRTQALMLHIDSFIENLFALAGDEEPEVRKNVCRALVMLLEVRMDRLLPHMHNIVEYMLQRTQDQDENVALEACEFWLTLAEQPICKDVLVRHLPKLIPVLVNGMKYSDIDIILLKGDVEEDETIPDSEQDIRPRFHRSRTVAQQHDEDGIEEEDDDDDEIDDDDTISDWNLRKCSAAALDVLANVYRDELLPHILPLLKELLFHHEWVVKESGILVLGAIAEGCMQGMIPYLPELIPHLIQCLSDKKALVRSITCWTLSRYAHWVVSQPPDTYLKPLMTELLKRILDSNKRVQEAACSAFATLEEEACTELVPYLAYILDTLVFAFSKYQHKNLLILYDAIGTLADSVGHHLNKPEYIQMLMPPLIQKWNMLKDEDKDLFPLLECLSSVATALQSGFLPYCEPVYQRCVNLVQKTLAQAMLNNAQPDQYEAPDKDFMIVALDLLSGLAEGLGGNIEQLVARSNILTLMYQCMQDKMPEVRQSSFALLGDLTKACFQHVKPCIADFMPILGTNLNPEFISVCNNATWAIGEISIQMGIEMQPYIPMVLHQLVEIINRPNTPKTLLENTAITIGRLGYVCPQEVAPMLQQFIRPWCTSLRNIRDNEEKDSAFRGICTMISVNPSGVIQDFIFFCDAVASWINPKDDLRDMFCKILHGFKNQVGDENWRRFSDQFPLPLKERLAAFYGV
# No constants are given. Whether binding was seen depends on the method and setting. Some results given as binding are weak or reduced against the parent protein; the word gives no strength.
# Legend:
# [1] = biological target: GST-human β-catenin (human) (UniProt P35222); assay: pull-down; GST-hβ-catenin on GT beads incubated with TNPO1 1 hr at 4°C, then RanQ69L-GTP or dialysis buffer + GTP added for 1 hr at 4°C; SDS-PAGE, Coomassie; both purified
# [2] = biological target: GST-human β-catenin (human) (UniProt P35222); assay: pull-down; GST fusions immobilised on GT Sepharose beads, purified TNPO1 (GST removed) incubated 1 hr at 4°C; lysis buffer 50 mM Tris pH 7.4, 150 mM NaCl, 2 mM MgCl2, 10% glycerol, 0.05% NP-40, 1 mM DTT; SDS-PAGE, Coomassie; both purified
substance,measurement,setting,value
"human Kap-β2/Transportin-1 (TNPO1), GST tag removed (from UniProt Q92973 1-898)",binding,[1],binds
same,binding,[2],binds
